Record: PubChem BioAssay AID1259425 (University of Nebraska Medical Center, 2018)
Aim: 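Compare each knockdown with KSR1 silencing using changes in marker transcripts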 (primary screen). System: HCT116 human colon cancer cells. Reagents: siRNA pool against human genes, 50 nM siRNA. Measured: 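After 50 nM siRNA pool, branched-DNA assay measures six marker transcripts per well, minus blank, normalised to the geometric mean of two housekeeping transcripts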. Direction: BNIP3L mRNA: higher = more BNIP3L transcript after knockdown.
Here is an unselected part of about 14,000 deposited reagents. Not all columns of the deposit are shown. Not given: the time to read-out.

HDAC7 — BNIP3L mRNA, set 1 = 0.128
GSTO1 — BNIP3L mRNA, set 1 = 0.0618
CHAF1B — BNIP3L mRNA, set 1 = 0.21
EGR4 — BNIP3L mRNA, set 1 = 0.112
SOX17 — BNIP3L mRNA, set 1 = 0.0959
PHC1 — BNIP3L mRNA, set 1 = 0.194
DIP2C — BNIP3L mRNA, set 1 = 0.105
NDUFS6 — BNIP3L mRNA, set 1 = 0.0794
QRFPR — BNIP3L mRNA, set 1 = 0.0941
COPS4 — BNIP3L mRNA, set 1 = 0.146
AP1M2 — BNIP3L mRNA, set 1 = 0.15
ZFYVE19 — BNIP3L mRNA, set 1 = 0.103
EIF3I — BNIP3L mRNA, set 1 = 0.127
SRL — BNIP3L mRNA, set 1 = 0.12
GPR68 — BNIP3L mRNA, set 1 = 0.079
S100A9 — BNIP3L mRNA, set 1 = 0.0402
THOC5 — BNIP3L mRNA, set 1 = 0.158
KLK7 — BNIP3L mRNA, set 1 = 0.0781
PCDHB1 — BNIP3L mRNA, set 1 = 0.175

Looked up above.
Under “BNIP3L mRNA, set 1”, ZFYVE19 has 0.103
Value of S100A9 in “BNIP3L mRNA, set 1”: 0.0402
EGR4, BNIP3L mRNA, set 1 = 0.112
